Assay results reported in paper PMC6347451.
These are yes or no findings as the source states them, for the method shown. Binding seen in cells or lysates may run through a third protein. Some binding calls cover weakened binding; strength is not graded here. Tags and fused reporters may be left off the sequences shown. Each block holds one binder with its values, some of them ahead of it.

Sequences of proteins named here, by UniProt entry; tags and fusion partners are left off. Residues count along the entry.
UniProt Q9BPX6, residues 34-476: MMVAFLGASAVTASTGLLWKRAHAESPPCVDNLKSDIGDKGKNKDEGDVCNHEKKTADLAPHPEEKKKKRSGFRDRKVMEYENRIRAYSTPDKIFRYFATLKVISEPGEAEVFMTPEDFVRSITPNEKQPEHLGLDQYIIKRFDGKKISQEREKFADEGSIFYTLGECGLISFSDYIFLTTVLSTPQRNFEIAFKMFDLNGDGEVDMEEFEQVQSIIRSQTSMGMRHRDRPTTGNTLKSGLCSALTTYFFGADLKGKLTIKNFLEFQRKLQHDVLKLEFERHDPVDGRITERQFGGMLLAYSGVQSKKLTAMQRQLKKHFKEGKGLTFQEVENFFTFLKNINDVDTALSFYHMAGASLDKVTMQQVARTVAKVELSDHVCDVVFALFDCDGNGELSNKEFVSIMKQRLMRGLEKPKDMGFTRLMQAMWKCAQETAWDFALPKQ

Molecular target: FLAG-tagged WT human MICU1 (human) (UniProt Q9BPX6)
Experiment: co-IP; FLAG-tagged MICU1 (or MICU2) held on FLAG-affinity resin pulls down co-expressed 1D4-tagged MCU; MCU/EMRE-KO HEK 293 cells; 4 °C; 100 mM NaCl, 20 mM Tris, 1 mM EGTA, 5 mM DDM, pH 7.5; 30 min batch binding; Western with anti-FLAG and anti-1D4; in Figure 5A with 50, 150 or 500 mM NaCl

binding: binds
B1: 1D4-tagged MCU homologue from Dictyostelium discoideum (protein, UniProt Q54LT0 29-275)
chain: EGELKTILGQAKVSKLQEKLKLDPRSKITFNDFKGIAKEVGIEEKEINSVSNALAQSGSIIYLPNSLNENLKTSVFTKPAHIYQSLEHILDIENKGVGLNKLIESKKSEINSLRQKIQPLEEKKQVIDRKAHRRATAIIWTGLGYCFAQAAILARLTWWDLSWDIIEPVSYFLTFGSVLIGYTYFTMTKTEFTYEALNHRLFSKRQDKLFKRNNFPKEDYENLVQAIDKKEKELKELELATKYDHTH

binding: binds
B2: 1D4-tagged MCU homologue from Caenorhabditis elegans (protein, UniProt Q21121 23-333)
chain: TLWNRQQIAFSTTTASSSTSPIQESSSPLSIRFEYGLPLLDVPLPSRNEPCQFTMRPLSDTIGSLCEFLRQEDRGIDYVAVYGTNGVKLATCTSIEHLLQFGSFRLRLNDKFFDVTVPKTGTMPYDSDKLRQLDDLRATVASLHAALCVDEYKLSREKKLLLQLENAETLLAPLHDAKRKIEQECEAHTDRVMWAGFAAMGVQTGLFARLTWWEYSWDIMEPVTYFATYSTVCATFGYYLYTQQSFEYPSARERVYTKQFYRRAQKQNFDIEKYNRLVTEVDELRNQLKRMRDPLFQHLPVSYLSNLEAEK

binding: binds
B3: 1D4-tagged MCU homologue from Drosophila melanogaster (protein, UniProt Q8IQ70 54-366)
chain: ASTAEDGETDKHKKPTTGEDIYVEYVNGMPHMTVRLPSRNELCQFALKPISHNVGDLLAMLRAEDRGIDRAAVINKHGVRIASSCTIESLLDDSFSIQINNRTLDVNPPKRDKVTLESMDKVGDVRKVIAQLYEAFNVGEYQLEKSNQLAKELETLRYELEPLEEKKLELSKKAARRTNFMTWMGLGLMSVQFGILARLTWWEYSWDIMEPVTYFVTYGTTMAMYAYYCVTKREYMMEDVKNREFSLSLYRNAKKVQFDVEHYNELKRKSAELEYNLRRINDPLNMQLPSHLVRTQENTPPTLTEEKAERKYT
